Measured values as given in PMC10119927, “Compact Rotaxane Superbases” (Journal of the American Chemical Society, 2023).

Assay: Base-mediated elimination of HBr from 4-bromophenethyl bromide: deprotonation kinetics and protonation vs alkylation
Conditions: for formation of eliminated product 9a: reaction times of over a week at 25 °C

SMILES: C1COCCOCCOCCOCCOCCOCCO1.FC(F)(F)c1cc(CNCc2cc(C(F)(F)F)cc(C(F)(F)F)c2)cc(C(F)(F)F)c1 [21C7⊂3]
- Superbase conversion (final time 168 hours (80 °C)): 3%
- formation of eliminated product 9a: only traces

SMILES: C1COCCOCCOCCOCCOCCOCCO1.Cc1cc(C)cc(CNCc2cc(C)cc(C)c2)c1 [21C7⊂6]
- Superbase conversion (final time 1 hour (25 °C)): 100%

SMILES: C1CCC2=NCCCN2CC1 [DBU, 1,8-diazabicyclo(5.4.0)undec-7-ene, reference compound]
- Superbase conversion (final time 168 hours (25 °C)): 17%

SMILES: C1COCCOCCOCCOCCOCCOCCOCCO1.CC(C)(C)c1cc(CNCc2cc(C(C)(C)C)cc(C(C)(C)C)c2)cc(C(C)(C)C)c1 [24C8⊂2]
- Superbase conversion (final time 168 hours (80 °C)): 37%
- formation of eliminated product 9a: only traces

SMILES: CN(C)P(=NC(C)(C)C)(N(C)C)N(C)C [P1-^tBu, tert-butylimino-tris(dimethylamino)phosphorane, reference compound]
- Superbase conversion (final time 120 hours (25 °C)): 21%

SMILES: C1COCCOCCOCCOCCOCCOCCOCCO1.FC(F)(F)c1cc(CNCc2cc(C(F)(F)F)cc(C(F)(F)F)c2)cc(C(F)(F)F)c1 [24C8⊂3]
- Superbase conversion (final time 16 hours (25 °C)): 7%
